Record: PubChem BioAssay AID1259425 (University of Nebraska Medical Center, 2018)

Screen: 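Compare each knockdown with KSR1 silencing using changes in marker transcripts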 (primary screen)
Cell system: HCT116 human colon cancer cells
Knock-down reagent: siRNA pool against human genes, 50 nM siRNA
Read-out: 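mRNA of six signature genes measured together by branched-DNA assay after 50 nM siRNA pool, blank removed, divided by geometric mean of two housekeeping genes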
Reading the numbers: BNIP3L mRNA: higher = more BNIP3L transcript after knockdown; NDRG1 mRNA: higher = more NDRG1 transcript after knockdown
In all, the deposit lists about 14,000 reagents; this is a part drawn at random. Not all columns of the deposit are shown. Not given: the time to read-out.

gene	PubChem SID	BNIP3L mRNA, set 1	NDRG1 mRNA, set 1
TRAT1 (GeneID 50852)	SID364000079	0.117	0.387
QARS1 (GeneID 5859)	SID363995989	0.268	0.696
NAPB (GeneID 63908)	SID364002312	0.185	0.338
HOXB3 (GeneID 3213)	SID363993350	0.31	0.204
APOBEC2 (GeneID 10930)	SID363997557	0.119	0.338
CAVIN3 (GeneID 112464)	SID364004641	0.0744	0.0758
SSR3 (GeneID 6747)	SID363997823	0.0919	0.0954
NRIP3 (GeneID 56675)	SID364001748	0.145	0.0932
CNMD (GeneID 11061)	SID363997749	0.179	0.129
RUFY1 (GeneID 80230)	SID364003284	0.245	0.522
SYNRG (GeneID 11276)	SID363997940	0.0406	0.0993
TOMM34 (GeneID 10953)	SID363997575	0.123	0.155
PIN1 (GeneID 5300)	SID363997045	0.109	0.243
HTR2C (GeneID 3358)	SID363992155	0.142	0.257
ZNF20 (GeneID 7568)	SID364002039	0.187	0.218
HSSUCCDH (retired record) (GeneID 54727)	SID364005027	0.112	0.147
ARHGAP19 (GeneID 84986)	SID364004263	0.109	0.393
SLC38A12 (GeneID 54868)	SID364000476	0.141	0.313
SWAP70 (GeneID 23075)	SID363999275	0.0572	0.256
USP12 (GeneID 219333)	SID364004955	0.0533	0.112
ENDOG (GeneID 2021)	SID363995417	0.0975	0.875
PLA2G2F (GeneID 64600)	SID364002563	0.192	0.837
CCDC51 (GeneID 79714)	SID364002955	0.0949	0.338
CASS4 (GeneID 57091)	SID364001624	0.145	0.193
CRYBG2 (GeneID 55057)	SID364000682	0.0784	0.091
CYP2W1 (GeneID 54905)	SID364000524	0.0696	0.215
GLRX5 (GeneID 51218)	SID364000094	0.0684	0.356
PTPRJ (GeneID 5795)	SID363993999	0.215	0.0464
RAD51C (GeneID 5889)	SID363994032	0.0873	0.239
PRM3 (GeneID 58531)	SID364002125	0.132	0.0753
FAM8A1 (GeneID 51439)	SID363999984	0.0812	0.0942
OS9 (GeneID 10956)	SID363997578	0.103	0.0708
ADAM7 (GeneID 8756)	SID363994879	0.102	0.159
PHF23 (GeneID 79142)	SID364002773	0.0989	0.177

No new results follow: entries from further up.
gene	PubChem SID	BNIP3L mRNA, set 1	NDRG1 mRNA, set 1
ZNF20 (GeneID 7568)	SID364002039	0.187	0.218
HSSUCCDH (retired record) (GeneID 54727)	SID364005027	0.112	0.147
